From the supplement of paper PMC9233669
Variants at the floor of the assay are shown more often than the library holds them.

Key:
biotinyl-Ile-oxazolone = assay: self-aminoacylation, catalytic enhancement (BIO) (fold over background); higher = more active; k-Seq, kA / k0A0; sequences stand for … in GGGAAUGGAUCCACAUCUACGAAUUC…UUCACUGCAGACUUGACGAAGCUG
How it was run: (§1)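 Mutagenized RNA pools with a 21-nt variable region (0.43 μM) reacted with each biotinyl-aminoacyl-oxazolone at 2–1250 μM. Reactions ran in 50 μL HEPES/NaCl/KCl/MgCl2/CaCl2 buffer with 5% acetonitrile, pH 6.9–7.0, for 90 minutes at room temperature. Streptavidin-captured RNA was quantified by triplicate qPCR and Illumina sequencing, and per-sequence fraction reacted was fit to a pseudo-first-order model with 1000 bootstraps. Catalytic enhancement is median kA divided by the uncatalyzed rate, the low-activity peak of a bimodal Gaussian fit.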

biotinyl-Phe-oxazolone = assay: self-aminoacylation, catalytic enhancement (BFO) (fold over background); higher = more active; k-Seq, kA / k0A0; sequences stand for … in GGGAAUGGAUCCACAUCUACGAAUUC…UUCACUGCAGACUUGACGAAGCUG
How it was run: as §1

biotinyl-Met-oxazolone = assay: self-aminoacylation, catalytic enhancement (BMO) (fold over background); higher = more active; k-Seq, kA / k0A0; sequences stand for … in GGGAAUGGAUCCACAUCUACGAAUUC…UUCACUGCAGACUUGACGAAGCUG
How it was run: as §1

biotinyl-Val-oxazolone = assay: self-aminoacylation, catalytic enhancement (BVO) (fold over background); higher = more active; k-Seq, kA / k0A0; sequences stand for … in GGGAAUGGAUCCACAUCUACGAAUUC…UUCACUGCAGACUUGACGAAGCUG
How it was run: as §1

biotinyl-Trp-oxazolone = assay: self-aminoacylation, catalytic enhancement (BWO) (fold over background); higher = more active; k-Seq, kA / k0A0; sequences stand for … in GGGAAUGGAUCCACAUCUACGAAUUC…UUCACUGCAGACUUGACGAAGCUG
How it was run: as §1

biotinyl-Leu-oxazolone = assay: self-aminoacylation, catalytic enhancement (BLO) (fold over background); higher = more active; k-Seq, kA / k0A0; sequences stand for … in GGGAAUGGAUCCACAUCUACGAAUUC…UUCACUGCAGACUUGACGAAGCUG
How it was run: as §1

Row | Sequence | self-aminoacylation (biotinyl-Ile-oxazolone) | self-aminoacylation (biotinyl-Phe-oxazolone) | self-aminoacylation (biotinyl-Met-oxazolone) | self-aminoacylation (biotinyl-Val-oxazolone) | self-aminoacylation (biotinyl-Trp-oxazolone) | self-aminoacylation (biotinyl-Leu-oxazolone)
1 | CUACUUCAAGCAAACGGUCUG [Fam1A.1 aminoacylation ribozyme variant] | 0.82 | 0.755 | 0.91 | 0.801 | 0.694 | 0.765
2 | CUACUUCAAGCAAUCUGUCUG [Fam1A.1 aminoacylation ribozyme variant] | 0.771 | 1.44 | 0.548 | 0.813 | 0.801 | 0.536
3 | CUACUUCAAGCAUUCGGUCUG [Fam1A.1 aminoacylation ribozyme variant] | 1.15 | 1.25 | 1.21 | 1.21 | 0.865 | 1.07
4 | CUACUUCAAUCAGUCGGUCUG [Fam1A.1 aminoacylation ribozyme variant] | 0.665 | 0.528 | 0.646 | 0.71 | 0.469 | 0.593
5 | CUACUUCACAAAAUCGGUCUG [Fam1A.1 aminoacylation ribozyme variant] | 0.985 | 0.608 | 0.863 | 0.831 | 0.739 | 0.823
6 | CUACUUCACACAAUCGCUCUG [Fam1A.1 aminoacylation ribozyme variant] | 1.07 | 0.953 | 1.08 | 1.22 | 0.533 | 1.38
7 | CUACUUCACACAAUCGGGCUG [Fam1A.1 aminoacylation ribozyme variant] | 1.46 | 1.01 | 1.65 | 1.31 | 1.55 | 1.21
8 | CUACUUCAGACAAUCGCUCUG [Fam1A.1 aminoacylation ribozyme variant] | 0.916 | 0.627 | 1.07 | 0.941 | 0.853 | 0.921
9 | CUACUUCAGACAAUCGGUCCG [Fam1A.1 aminoacylation ribozyme variant] | 0.811 | 0.81 | 1 | 0.695 | 1.38 | 1.01
10 | CUACUUCAGACAAUCUGUCUG [Fam1A.1 aminoacylation ribozyme variant] | 0.6 | 0.716 | 0.711 | 0.646 | 0.445 | 0.56
11 | CUACUUCAGACAAUUGGUCUG [Fam1A.1 aminoacylation ribozyme variant] | 0.877 | 0.687 | 0.766 | 0.758 | 0.601 | 0.754
12 | CUACUUCAUACAAUCCGUCUG [Fam1A.1 aminoacylation ribozyme variant] | 0.857 | 0.802 | 0.821 | 0.87 | 0.586 | 0.741
13 | CUACUUCAUAUAAUCGGUCUG [Fam1A.1 aminoacylation ribozyme variant] | 0.771 | 0.756 | 0.791 | 0.718 | 0.593 | 0.748
14 | CUACUUCCAACAAACGGUCUG [Fam1A.1 aminoacylation ribozyme variant] | 0.768 | 0.741 | 0.676 | 0.707 | 0.756 | 0.598
15 | CUACUUCCAACAAUCGGUCUC [Fam1A.1 aminoacylation ribozyme variant] | 0.684 | 0.933 | 0.803 | 0.665 | 0.655 | 0.743
16 | CUACUUCCAUCAAUCGGUCUG [Fam1A.1 aminoacylation ribozyme variant] | 0.758 | 0.571 | 0.627 | 0.79 | 0.741 | 0.731
17 | CUACUUCGAACAAUCGGCCUG [Fam1A.1 aminoacylation ribozyme variant] | 1.6 | 4.78 | 1.71 | 1.54 | 1.84 | 1.36
18 | CUACUUCGAACAAUCGGUCAG [Fam1A.1 aminoacylation ribozyme variant] | 0.827 | 0.751 | 0.588 | 0.825 | 0.415 | 0.713
19 | CUACUUCGAACAAUCGGUCUA [Fam1A.1 aminoacylation ribozyme variant] | 0.926 | 0.547 | 0.833 | 0.743 | 0.62 | 0.854
20 | CUACUUCGAACAAUCUGUCUG [Fam1A.1 aminoacylation ribozyme variant] | 0.539 | 0.413 | 0.51 | 0.576 | 0.337 | 0.576
21 | CUACUUCGAACUAUCGGUCUG [Fam1A.1 aminoacylation ribozyme variant] | 0.8 | 0.964 | 0.778 | 0.842 | 0.459 | 0.776
22 | CUACUUCUAACAAUAGGUCUG [Fam1A.1 aminoacylation ribozyme variant] | 0.686 | 0.804 | 0.731 | 0.638 | 0.373 | 0.59
23 | CUACUUCUGACAAUCGGUCUG [Fam1A.1 aminoacylation ribozyme variant] | 0.578 | 0.543 | 0.714 | 0.77 | 0.482 | 0.63
24 | CUACUUGAAACAAUCGCUCUG [Fam1A.1 aminoacylation ribozyme variant] | 0.777 | 0.553 | 0.626 | 0.782 | 0.655 | 0.805
25 | CUACUUGAAACAAUCGGUGUG [Fam1A.1 aminoacylation ribozyme variant] | 0.961 | 0.706 | 1.22 | 1.07 | 1.68 | 1.3
26 | CUACUUGAAACAUUCGGUCUG [Fam1A.1 aminoacylation ribozyme variant] | 1.36 | 0.666 | 1.48 | 1.51 | 1.16 | 1.31
